Test results as given in patent publication US20220064286A1.
These are yes or no findings as the source states them, for the method shown. Some entries that bind do so weakly or less than the wild type.

Columns and labels:
[1] = biological target: cynomolgus monkey (cyno) TIGIT protein (cynomolgus monkey); assay: ELISA, hybridoma supernatant
[2] = biological target: cynomolgus TIGIT on CHO cells (cynomolgus monkey); assay: FACS on CHO cells expressing cyno TIGIT, FITC anti-hIgG detection
[3] = biological target: cynomolgus TIGIT on CHO cells (cynomolgus monkey); assay: FACS blocking assay: labelled PVR-Fc (blocked ligand; text: cyPVR, scheme of FIG. 4A prints hPVR.Fc) on CHO cells expressing cyno TIGIT
[4] = biological target: cynomolgus monkey (cyno) TIGIT protein (cynomolgus monkey); assay: SPR
[5] = biological target: cynomolgus TIGIT on CHO cells (cynomolgus monkey); assay: FACS blocking assay: labelled PVR-Fc (blocked ligand) on CHO cells expressing cyno TIGIT

Row | binding [1] | binding [2] | binding [3] | binding [4] | binding [5] | Binder
1 | binds | binds | – | – | binds | rat10A5 (antibody, V domains shown) VH: QVSLKESGPGILQPSHTLSLTCSFSGFSLTTYGMGVSWIRQPSEKGLEWLASIWWNGNTYYNPSLRSRLTVSKDTSNDQAFLNVTSVDTTDTATYYCAHTGGAVITWFAYWGQGTLVTVSS VL: NIVMTQSPKSMSISIGDRVTMNCKASQSVGKNIAWYQQKTGQSPQLLIYYASNRYTGVPDRFTGGGSGTDFTLTINSVQAEDAAFFYCQHIYNSPYPFGTGTKLEIK
2 | binds | binds | – | – | binds | rat6B2 (antibody, V domains shown) VH: QVSLKESGPGILQPSHTLSLTCSFSGFSLSTYGMGVSWIRQPSEKGLEWLASIWWNGNTYYNPSLKSRLTVSKDASNDQAFLNVTSVDTTDTATYYCAHTGGAVITWFAYWGQGTLVTVSS VL: NIVMTQSPKSMSISVGDRVTMNCKASQSVGKNIAWYQQKPGQSPKLLIYYASNRYTGVPDRFTGGGSGTDFTLTINTVQAEDAAFFYCQHIYNSPYPFGTGTKLEIK
3 | – | – | – | binds | – | h10A5.L4H4 (antibody, V domains shown) VH: EVTLKESGPALVKPTQTLTLTCTFSGFSLTTYGMGVSWIRQPPGKALEWLASIWWNGNTYYNPSLRSRLTITKDTSKNQVVLTMTNMDPVDTATYYCAHTGGAVITWFAYWGQGTLVTVSS VL: EIVMTQSPATLSVSPGERATLSCKASQSVGKNIAWYQQKPGQAPRLLIYYASNRYTGIPARFSGSGSGTEFTLTISSLQSEDFAVYYCQHIYNSPYPFGQGTKVEIK
4 | binds | binds | – | – | binds | rat15C8 (antibody, V domains shown) VH: EVQLQQSGPELQRPGASVKLSCKASGYTFTEHSIYWLKQRPKQSLEIIGRIDPKNGRTYFVDKFKNRATLTTNTSSNTAYMQLSSLTSEDTAIYFCARIDGFYFDFWGQGVMVTASS VL: NIHLTQSPSLLSASVGDRVTLSCKGSQNVNKYLVWYQQKLGEAPKLLIYSTDNLQSGIPSRFSGSGSGTDYTLTISSLQPEDAATYFCYQYNNGFTFGSGTKLEIK
5 | binds | binds | – | – | binds | rat7E7 (antibody, V domains shown) VH: EVQLQQSGPELQRPGASVKLSCKATGYTFTEYSIYWVKQRPKQSLEIIGRIDPKNGRTYYVDKFKNRATLTADTSSNTAYMQLSSLTSEDTATYFCTRIYGFYFDFWGQGVMVTASS VL: NIHLTQSPSLLSASVGDRVTLSCKGSQNVNKYLVWYQQKLGEAPKLLIYNTDNLQSGIPSRFSGSGSGTDYTLTISSLQPEDAATYFCYQYNNGFTFGSGTKLEIK

More lines, now with the values behind:

Row | Binder | binding [1] | binding [2] | binding [3] | binding [4] | binding [5]
6 | 7.4A3 (antibody, V domains shown) VH: QVQLVQSGSDLKKPGASVRVSCKASGYTFTSYPMNWVRQAPGHGLEWMGWINTNTGNPTYVQGFTGRFVFSLDTSVNTAYLQISSLKAEDTAVYFCARTGGHTYDSYAFDVWGQGTMVTVSS VL: DIQLTQSPTFLSASVGDRVTITCRASQVISSSLAWYQQNPGKAPKLLIYAASTLQSGVPSRFSGSGSGTEFTLTISSLQPEDFVTYYCQHLHGYPCNFGQGTKVEIK | binds | binds | binds | – | –
7 | 7.4A3.C96S.Q1E (antibody, V domains shown) VH: EVQLVQSGSDLKKPGASVRVSCKASGYTFTSYPMNWVRQAPGHGLEWMGWINTNTGNPTYVQGFTGRFVFSLDTSVNTAYLQISSLKAEDTAVYFCARTGGHTYDSYAFDVWGQGTMVTVSS VL: DIQLTQSPTFLSASVGDRVTITCRASQVISSSLAWYQQNPGKAPKLLIYAASTLQSGVPSRFSGSGSGTEFTLTISSLQPEDFVTYYCQHLHGYPSNFGQGTKVEIK | – | binds | binds | binds | –
8 | 7.4A3.C96Y.Q1E (antibody, V domains shown) VH: EVQLVQSGSDLKKPGASVRVSCKASGYTFTSYPMNWVRQAPGHGLEWMGWINTNTGNPTYVQGFTGRFVFSLDTSVNTAYLQISSLKAEDTAVYFCARTGGHTYDSYAFDVWGQGTMVTVSS VL: DIQLTQSPTFLSASVGDRVTITCRASQVISSSLAWYQQNPGKAPKLLIYAASTLQSGVPSRFSGSGSGTEFTLTISSLQPEDFVTYYCQHLHGYPYNFGQGTKVEIK | – | binds | binds | – | –
9 | h6B2.L2H5 (antibody, V domains shown) VH: EVTLKESGPALVKPTQTLTLTCTFSGFSLSTYGMGVSWIRQPPGKALEWLASIWWNGNTYYNPSLKSRLTITKDTSKNQVVLTMTNMDPVDTATYYCAHTGGAVITWFAYWGQGTLVTVSS VL: DIQMTQSPSSLSASVGDRVTITCKASQSVGKNIAWYQQKPGKAPKLLIYYASNRYTGVPSRFSGSGSGTDFTFTISSLQPEDIATYYCQHIYNSPYPFGQGTKVEIK | – | – | – | binds | –
10 | 4.1A4.C96S.Q1E (antibody, V domains shown) VH: EVQLVQSGSELKKPGASVKVSCKASGYTLTNYPMNWVRQAPGRGLEWMGWINTNTGSPAYAQDFTERFVFSLDTSVTTAYLQISSLKAEDTAVYYCARTAITSVYHFDYWGQGTLVTVSS VL: DIQLTQSPSFLSASVGDRVTITCRASQGISSYLAWYQQKPGKAPRVLIYGATTLQSGVPSRFSGSESGTEFTLTISSLQPEDLATYYCQKLNSHPSSFGQGTKVEIK | – | binds | binds | binds | –
11 | 4.1A4 (antibody, V domains shown) VH: QVQLVQSGSELKKPGASVKVSCKASGYTLTNYPMNWVRQAPGRGLEWMGWINTNTGSPAYAQDFTERFVFSLDTSVTTAYLQISSLKAEDTAVYYCARTAITSVYHFDYWGQGTLVTVSS VL: DIQLTQSPSFLSASVGDRVTITCRASQGISSYLAWYQQKPGKAPRVLIYGATTLQSGVPSRFSGSESGTEFTLTISSLQPEDLATYYCQKLNSHPCSFGQGTKVEIK | binds | binds | binds | – | –
